Data from PubChem BioAssay AID2551 (National Center for Advancing Translational Sciences (NCATS), 2010).
Out of some 310,000 compounds screened, about 17,000 (5.5%) were called active. This list was built around the results that the source calls inconclusive (neither active nor inactive); the mix of calls is not that of the screen. Calls come from the whole dose curve; as a rule, active = well fitted inhibition curve with a large enough effect; inconclusive = small, poorly fitted or top-dose-only effect, or effect the other way; inactive = no such curve, though single readings can be large or run the other way. Potencies of inconclusive entries are doubtful fits and often do not repeat.

Amino acid sequences for entries named in this document (tags omitted). A change or cut given only in a name is not applied to a line headed by its entry.
UniProt P51450: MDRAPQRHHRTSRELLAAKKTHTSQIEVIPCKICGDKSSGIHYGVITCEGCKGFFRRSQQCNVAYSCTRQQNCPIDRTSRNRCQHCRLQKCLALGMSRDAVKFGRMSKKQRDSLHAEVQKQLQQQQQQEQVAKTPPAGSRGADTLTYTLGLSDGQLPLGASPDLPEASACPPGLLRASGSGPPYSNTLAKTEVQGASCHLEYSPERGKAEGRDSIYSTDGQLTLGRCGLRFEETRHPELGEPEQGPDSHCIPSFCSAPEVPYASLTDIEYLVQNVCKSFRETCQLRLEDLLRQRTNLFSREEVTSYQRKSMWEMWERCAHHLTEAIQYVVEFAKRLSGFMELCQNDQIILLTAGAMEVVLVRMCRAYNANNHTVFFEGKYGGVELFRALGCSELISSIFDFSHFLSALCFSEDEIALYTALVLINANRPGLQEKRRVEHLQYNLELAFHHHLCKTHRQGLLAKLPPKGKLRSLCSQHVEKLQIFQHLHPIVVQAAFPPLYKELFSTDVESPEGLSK

These molecules were tested against Nuclear receptor ROR-gamma (Mus musculus) (UniProt P51450) (assay: qHTS for inhibitors of ROR gamma transcriptional activity). Details: Drosophila S2 Gal4-RORgamma UAS-luciferase reporter, 20 h; series mostly up to 53.6 µM.
Procedure, shortened: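 Drosophila Schneider cells stably carrying a metallothionein-driven Gal4 DBD–ROR gamma fusion and a UAS-Photinus luciferase reporter were exposed to compound for 1 hr, then induced with copper sulfate (700 uM final) for 20 hr at ambient temperature before luminescence reading.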
Note: nearly all actives have a fitted effect of over 60% in size.
Potency is the fitted concentration of half-maximal effect.

| Structure (SMILES) | Potency |
| --- | --- |
| Cc1ccc(NC(=O)NC(=S)NC(=O)c2ccccc2)cc1 | active: 2.51 µM |
| O=C1/C(=C\c2ccccn2)SC(=S)N1Nc1ncc(C(F)(F)F)cc1Cl | active: 11.2 µM |
| O=C(Nc1cccc(F)c1)N1CCCC2(CCNCC2)C1 | inactive |
| CCCCCCCC(=O)N/N=C/c1ccncc1 | inconclusive: 14.1 µM [inhibitor, single point] |
| CC(=O)N1CCN(c2ccc([N+](=O)[O-])c(NCC3CCCO3)c2)CC1 (configuration not stated) | inactive |
| COC(=O)c1ccc(C(=O)OC)c(NC(=S)N2CC(C)CC(C)C2)c1 (configuration not stated) | active: 11.2 µM |
| c1cc(-c2nnc(-c3ccncc3)o2)ccn1 | inactive |
| COc1ccc(C(=O)NC(=S)Nc2cc3oc4ccccc4c3cc2OC)cc1 | inconclusive: 35.5 µM [inhibitor, single point] |
| COc1ccc(N2CCN(CCCn3c(=S)[nH]c4ccccc4c3=O)CC2)cc1 | active: 6.31 µM |
| O=C1CSC(c2ccccn2)N1c1ccc(Cl)c(Cl)c1 (configuration not stated) | inconclusive: 12.6 µM [inhibitor, single point] |
| O=C(CNC(=O)c1ccc(Br)o1)NNC(=O)c1ccccc1F | inconclusive: 1.58 µM [inhibitor, partial curve, poor fit] |
| CSc1cccc(NC(=S)N(CCCN2CCC(C)CC2)Cc2cccs2)c1 | active: 12.6 µM |
| CCC(=O)NC(=S)Nc1ccc(NC(=O)c2ccco2)c(OC)c1 | active: 12.6 µM |
| COCCNC(=O)CN(C(=O)Cn1nnc2ccccc21)c1ccc(F)c(Cl)c1 | inactive |
| CN1C(=O)N(C)C2(c3ccccc3)N(C(C)(C)C)C(=O)NC12c1ccccc1 (configuration not stated) | inactive |
| Cc1ccccc1NC(=S)NNC(=O)c1cccnc1 | active: 6.31 µM |
| Cc1ccc2nc3c(cc(C(=O)NCC4CCCO4)c(=N)n3C3CCCC3)c(=O)n2c1 (configuration not stated) | inactive |
| CC(C)c1ccc(NC(=O)CSc2n[nH]c(=O)n2-c2ccc3c(c2)OCCO3)cc1 | inconclusive: 35.5 µM [activator, single point] |
| Cc1ccc(C)c(NC(=S)NNC(=O)c2csc3c2CCCC3)c1 | inconclusive: 14.1 µM [inhibitor, single point] |
| O=C(CCCN1C(=O)/C(=C/c2cccc(Br)c2)SC1=S)N1CCOCC1 | inactive |
| CN(C)S(=O)(=O)c1ccc2nnn(O)c2c1 | inactive |
| C/C(CC(=O)Nc1ccc(Cl)cc1C(F)(F)F)=N\NC(=O)c1cccs1 | inactive |
| Cn1c(COc2ccc([N+](=O)[O-])cc2)nnc1SCC(=O)NCC1CCCO1 (configuration not stated) | inconclusive: 2.51 µM [inhibitor, partial curve, poor fit] |
| COc1ccccc1-n1cnnc1SCC(=O)N1CCN(C(=O)c2ccco2)CC1 | inactive |
| Cc1ccc(C2=NNC(C(O)C(O)C(O)C(C)O)S2)cc1 (configuration not stated) | inconclusive: 15.8 µM [inhibitor, partial curve, poor fit] |
| O=C(NC1CCCN(Cc2ccc(Cl)cc2)C1)c1ccccc1C(F)(F)F (configuration not stated) | inactive |

| Structure (SMILES) | Potency |
| --- | --- |
| COc1ccccc1-c1nnc2sc(COc3ccc(Cl)cc3)nn12 | inconclusive: 8.91 µM [activator, partial curve] |
| O=[N+]([O-])c1ccc(O)c(Nc2ncnc3ccccc23)c1 | inconclusive: 31.6 µM [inhibitor, single point] |
| N/N=C/C(=N\Nc1ccc(Cl)cc1)C(=O)c1ccncc1 | inconclusive: 35.5 µM [activator, single point] |
| COc1cc2c(cc1OC)CN(CC(=O)Nc1ccc(C)c(C)c1)CC2 | inactive |
| O=C(NC1=NCCS1)c1ccc(Cl)c(S(=O)(=O)N2CCCCC2)c1 | inconclusive: 35.5 µM [inhibitor, single point] |
| CC1=C/C(=N\NC(=O)c2cccs2)CC(C)(C)C1 | active: 6.31 µM |
| C=CCN(C(=O)CSc1nc2[nH]ncc2c(=O)n1-c1ccccc1OC)c1ccccc1 | inconclusive: 11.2 µM [activator, partial curve] |
| CC1CCN(C2=NC(=O)/C(=C/c3ccc(O)cc3)S2)CC1 | inconclusive: 1.41 µM [inhibitor, full curve, poor fit] |
| COc1ccc2ccccc2c1C1CC(=O)N2CN(Cc3ccco3)CSC2=C1C#N (configuration not stated) | active: 10 µM |
| O=C(Nc1ccc(S(=O)(=O)N2CCc3ccccc32)cc1)C(F)(F)F | inconclusive: 14.1 µM [activator, partial curve] |
| COCC(C)n1c(SCc2ccc(OC)c(F)c2)nc2ccccc2c1=O (configuration not stated) | inconclusive: 10 µM [activator, partial curve] |
| COC(C[C@H](O)[C@H](C)[C@@H](O)COCc1ccccc1)OC | inactive |
| CC1(C)CC(=O)C2=C(C1)NC(=S)C(C#N)C21CCCCC1 (configuration not stated) | active: 10 µM |
| NS(=O)(=O)c1ccc(CCNC(=O)c2nc(CS(=O)(=O)c3ccc(Cl)cc3)no2)cc1 | inactive |
| CN(C)c1ccc(C(=O)OCC(=O)c2cccs2)cc1 | inconclusive: 15.8 µM [inhibitor, single point] |
| O=C(Nc1ccccc1)c1cccc(S(=O)(=O)NC2CCCC2)c1 | inactive |
| Cc1cc2c(cn1)C(CCC#N)(CCC#N)c1ccccc1-2 | inactive |
| Oc1c(Br)cc(Cl)cc1C=Nc1ccccc1Br | inconclusive: 35.5 µM [inhibitor, single point] |
| Cc1cc(C)c(COc2ccc(/C=N/n3c(C)n[nH]c3=S)cc2)c(C)c1 | active: 2.82 µM |
| Cc1ccccc1C1C(C#N)=C(N)N(N(C)C)C2=C1C(=O)CC(C)(C)C2 (configuration not stated) | inactive |
| CC(C)Oc1ccc(CNCC2(O)CCOC(C)(C)C2)cc1 (configuration not stated) | inconclusive: 22.4 µM [inhibitor, single point] |
| CC(Oc1ccccc1F)C(=O)NNC(=O)c1ccc(F)c(S(=O)(=O)N2CCOCC2)c1 (configuration not stated) | inactive |
| COC(=O)CN1C(=O)[C@H]2[C@@H](/C=C/c3ccccc3)N3C(=O)CN(Cc4ccccc4)C(=O)[C@@]3(C)[C@H]2C1=O | inactive |
| CCN1C(=O)C(CC(=O)Nc2ccc(F)cc2)N(Cc2cccs2)C1=S (configuration not stated) | inconclusive: 14.1 µM [inhibitor, single point] |
| COc1cccc(C(=O)/C=C/Nc2ccc(S(=O)(=O)Nc3nc(C)cc(C)n3)cc2)c1 | inconclusive: 7.94 µM [activator, partial curve] |
| O=c1c2cc(Br)ccc2[nH]c(=S)n1Cc1ccccc1 | active: 2.51 µM |

| Structure (SMILES) | Potency |
| --- | --- |
| O=C(O)c1cccc(NC(=O)c2cn(-c3ccccc3)nc2-c2ccc([N+](=O)[O-])cc2)c1 | inconclusive: 20 µM [activator, single point] |
| Cc1ccc(C)c(S(=O)(=O)Nc2ccc(O)c3ccccc23)c1 | inconclusive: 11.2 µM [inhibitor, partial curve, poor fit] |
| O=C(Nc1ccccc1)c1cccc(N2CCCC2=O)c1 | inconclusive: 0.794 µM [activator, full curve] |
| O=C(CC(=O)c1ccccc1)c1ccccc1 | active: 3.98 µM |
| CC(C)c1nnc(NC(=O)Cc2cccs2)s1 | inconclusive: 1 µM [activator, single point] |
| Clc1ccc2nc(-c3ccc(Cl)nc3)[nH]c2c1 | inactive |
| O=C(Nc1ccccc1O)C(c1ccccc1)c1ccccc1 | inconclusive: 3.16 µM [inhibitor, single point] |
| O=C(COc1ccc(Cl)cc1)Nc1nnc(C2=COCCO2)o1 | active: 12.6 µM |
| CCOc1ccc(CN2CCN(Cc3cc4ccccc4o3)CC2CCO)cc1 (configuration not stated) | inconclusive: 0.224 µM [activator, full curve] |
| COc1ccccc1N(CC(=O)NCc1ccco1)S(=O)(=O)c1ccc(C)cc1 | inactive |
| CCn1c(=O)cc(SCC(=O)N2CCN(C)CC2)c2ccccc21 | inconclusive: 11.2 µM [inhibitor, single point] |
| Cc1csc(/C(=N/OC(=O)c2ccco2)C(N)=O)n1 | inactive |
| O=C(COc1ccc(Cl)cc1Cl)OCC(=O)N1CCCc2ccccc21 | inconclusive: 0.0063 µM [inhibitor, full curve, poor fit] |
| CCC(C)(C)n1nnnc1C(c1cccs1)N1CCc2ccccc21 (configuration not stated) | inconclusive: 12.6 µM [activator, single point] |
| CCS(=O)(=O)N1CCN(c2ccccc2)CC1 | inconclusive: 0.141 µM [activator, full curve, poor fit] |
| CC(C)N(Cc1ccccc1)C(=S)NC(=O)C1(C)CC1(Cl)Cl (configuration not stated) | active: 0.562 µM |
| Cc1ccc(C)c(NC(=S)N2CCN(c3cccc(C(F)(F)F)c3)CC2)c1 | active: 4.47 µM |
| COC(=O)C1=NN(C(=O)c2cccc(Cl)c2)C(O)(C(C)(C)C)C1 (configuration not stated) | active: 5.01 µM |
| COc1cccc(-c2csc(N3CCN(C(=S)Nc4ccccc4OC)CC3)n2)c1 | active: 7.94 µM |
| O=C(CC1COc2ccccc2O1)NCCc1ccccc1 (configuration not stated) | inconclusive: 12.6 µM [activator, partial curve] |
| CC1=NN(C(N)=S)C(=O)C1N=Nc1ccc(Br)cc1 (configuration not stated) | active: 0.447 µM |
| Cc1ccnc2nc(C(=O)Nc3nccs3)nn12 | inconclusive: 1.78 µM [activator, partial curve, poor fit] |
| NC(=O)CSc1nc2ccccc2c(=O)n1CCc1ccccc1 | inconclusive: 31.6 µM [inhibitor, single point] |
| CCOc1ccc(S(=O)(=O)Nc2cc(F)ccc2F)c2cccnc12 | inconclusive: 0.0251 µM [inhibitor, full curve] |
| O=C(NCc1ccc(F)cc1)c1ccc(CS(=O)(=O)Cc2ccc(F)cc2)o1 | inconclusive: 11.2 µM [activator, partial curve] |

Part of the list above, bar-delimited:
Structure (SMILES) | Potency
O=C(Nc1ccccc1)c1cccc(N2CCCC2=O)c1 | inconclusive: 0.794 µM [activator, full curve]
CCn1c(=O)cc(SCC(=O)N2CCN(C)CC2)c2ccccc21 | inconclusive: 11.2 µM [inhibitor, single point]
Cc1csc(/C(=N/OC(=O)c2ccco2)C(N)=O)n1 | inactive
O=C(CC1COc2ccccc2O1)NCCc1ccccc1 (configuration not stated) | inconclusive: 12.6 µM [activator, partial curve]
